Laboratory results reported in US10906930B2, “Compositions and methods for activating “stimulator of interferon gene”-dependent signalling” (ADURO BIOTECH, INC., priority 2015, dated 2021).
Some results were stated once for a whole list of compounds, not compound by compound.

Assays:
[1] = test system: human STING signaling in THP1 cells (HAQ allele); experiment: THP1-Dual IRF-3 inducible luciferase reporter assay; assay type: cell-based; conditions: with digitonin
Experimental: […] After 30 minutes, cells were washed and fresh RPMI media containing 10% FBS was added, and cells were incubated at 37° C. with 5% CO2. Cell culture supernatants from each sample were collected after overnight incubation, and 10 μL of the cell culture supernatants was added to 50 μL QUANTI-Luc reagent (Invivogen). Type I interferon activation was determined by measuring secreted luciferase levels on a SpectraMax M3 spectrophotometer (Molecular Devices).

[2] = test system: hPBMCs homozygous for the REF (R232H) STING allele; experiment: IFN-β transcript induction in hPBMCs, STING REF/REF donor; assay type: cell-based, human; conditions: hSTING REF allele, 10 μM, 2 hours
Experimental: The induction of type I interferon was measured in human primary blood mononuclear cells (hPBMCs) to evaluate the potency of the mono- or di-F-ML-CDN compounds as described herein. hPBMCs from three unique donors were used: one donor was homozygous for the wild type (WT) STING allele (STING^WT/WT), one donor was homozygous for the so-called reference (REF) (R232H) STING allele (STING^REF/REF), and the third donor was homozygous for the HAQ (R71H, G230A, R293Q) STING allele (STING^HAQ/HAQ). The STING genotype of these donors was determined by PCR amplification and sequencing: genomic DNA was isolated from hPBMCs using Quick Extract DNA Extraction Solution (Epicentre) and was used to amplify regions of exon 3, 6, and 7 of the human STING gene.
After 2 hours stimulation, cells were harvested by centrifugation and washed once in phosphate-buffered saline. Cellular RNA was isolated using the Aurum Total RNA 96 Kit and cDNA was synthesized using the iScript cDNA Synthesis Kit. Target (IFN-β) and reference (HSP90AB1 and GUSB) gene expression was assessed by real-time qRT-PCR using PrimePCR probe assays and the CFX96 gene cycler (all reagents and equipment from BioRad). Relative IFN-β expression was compared to untreated cells and normalized to reference genes (2^−ΔΔCt method).

Nc1ncnc2c1ncn2[C@@H]1O[C@@H]2CO[P@@](=O)(S)O[C@@H]3[C@H](F)[C@@H](CO[P@@](=O)(S)O[C@H]2[C@H]1F)O[C@H]3n1cnc2c(N)ncnc21 [Compound 5, dithio-[RP, RP]-cyclic-[3′F-A(2′,5′)p-2′F-A(3′,5′)p]]
EC50 improvement over 2′3′-RR-(A)(A) [1]: ≤ 2 fold | IFN-β transcript level, fold higher than 2′3′-RR-(A)(A) [2]: > 80 fold

Nc1ncnc2c1ncn2[C@@H]1O[C@@H]2CO[P@@](=O)(S)O[C@@H]3[C@@H](F)[C@@H](CO[P@@](=O)(S)O[C@H]2[C@H]1F)O[C@H]3n1cnc2c(N)ncnc21 [Compound 10, dithio-[RP, RP]-cyclic-[3′βF-A(2′,5′)p-2′F-A(3′,5′)p]]
EC50 improvement over 2′3′-RR-(A)(A) [1]: ≤ 2 fold
